From the supplement of paper PMC11438910
The other results are listed elsewhere or left out. Only a few entries rise above the background.

How the values were obtained:
Test in all cases: fluorescence intensity of antibody binding to polysaccharide-coupled beads; higher = stronger binding
[1] = biological target: pneumococcal polysaccharide Pn28A
[2] = biological target: pneumococcal polysaccharide Pn28F
[3] = biological target: pneumococcal polysaccharide Pn29
[4] = biological target: pneumococcal polysaccharide Pn3
[5] = biological target: pneumococcal polysaccharide Pn31
[6] = biological target: pneumococcal polysaccharide Pn32A
[7] = biological target: pneumococcal polysaccharide Pn32F
[8] = biological target: pneumococcal polysaccharide Pn33A
[9] = biological target: pneumococcal polysaccharide Pn33B
[10] = biological target: pneumococcal polysaccharide Pn33C
[11] = biological target: pneumococcal polysaccharide Pn33D
[12] = biological target: pneumococcal polysaccharide Pn33F
[13] = biological target: pneumococcal polysaccharide Pn34
[14] = biological target: pneumococcal polysaccharide Pn35A
[15] = biological target: pneumococcal polysaccharide Pn35B
[16] = biological target: pneumococcal polysaccharide Pn35C
[17] = biological target: pneumococcal polysaccharide Pn35F
[18] = biological target: pneumococcal polysaccharide Pn36
[19] = biological target: pneumococcal polysaccharide Pn37
[20] = biological target: pneumococcal polysaccharide Pn38
[21] = biological target: pneumococcal polysaccharide Pn39
[22] = biological target: pneumococcal polysaccharide Pn4
[23] = biological target: pneumococcal polysaccharide Pn40
[24] = biological target: pneumococcal polysaccharide Pn41A
[25] = antibody concentration 2337.65 ng/mL
[26] = antibody concentration 12500 ng/mL
[27] = antibody concentration 0.1 ng/mL
[28] = antibody concentration 0.534724 ng/mL
[29] = antibody concentration 2.8593 ng/mL
[30] = antibody concentration 15.2894 ng/mL
[31] = antibody concentration 81.7561 ng/mL
[32] = antibody concentration 437.17 ng/mL

B1: 4-99.2 (protein)
chain 1: QVQLQESGPGLVKPSETLSLTCAVSGYSIRSAYEWGWIRQPPGKGLEYIGYISGESGNTYYSPSLKSRVTISRDTSKNQFSLRLSSVTAADSAVYYCARRGQLIGFDFWGQGVLVTVSS
chain 2: QAAPTQPPSVSGSPGQSVTISCTGTSSDIGYYNAVSWYQHLPGKAPKLMIYEVSKRPSGVSDRFSGSKSGNTASLTISGLQAEDEADYYCSSYAGSNTYIFGAGTRLTVL
[1]; [25]
  fluorescence intensity: 26.2 MFI
[1]; [26]
  fluorescence intensity: 31.5 MFI
[2]; [27]
  fluorescence intensity: 28.5 MFI
[2]; [28]
  fluorescence intensity: 28 MFI
[2]; [29]
  fluorescence intensity: 29.5 MFI
[2]; [30]
  fluorescence intensity: 29 MFI
[2]; [31]
  fluorescence intensity: 28 MFI
[2]; [32]
  fluorescence intensity: 28 MFI
[2]; [25]
  fluorescence intensity: 30 MFI
[2]; [26]
  fluorescence intensity: 41.5 MFI
[3]; [27]
  fluorescence intensity: 14.5 MFI
[3]; [28]
  fluorescence intensity: 15.5 MFI
[3]; [29]
  fluorescence intensity: 16 MFI
[3]; [30]
  fluorescence intensity: 15.2 MFI
[3]; [31]
  fluorescence intensity: 16.5 MFI
[3]; [32]
  fluorescence intensity: 14 MFI
[3]; [25]
  fluorescence intensity: 20 MFI
[3]; [26]
  fluorescence intensity: 36.8 MFI
[4]; [27]
  fluorescence intensity: 18.8 MFI
[4]; [28]
  fluorescence intensity: 35.5 MFI
[4]; [29]
  fluorescence intensity: 79.8 MFI
[4]; [30]
  fluorescence intensity: 246 MFI
[4]; [31]
  fluorescence intensity: 915 MFI
[4]; [32]
  fluorescence intensity: 3140 MFI
[4]; [25]
  fluorescence intensity: 17200 MFI
[4]; [26]
  fluorescence intensity: 8310 MFI
[5]; [27]
  fluorescence intensity: 13 MFI
[5]; [28]
  fluorescence intensity: 13.5 MFI
[5]; [29]
  fluorescence intensity: 13.8 MFI
[5]; [30]
  fluorescence intensity: 13.5 MFI
[5]; [31]
  fluorescence intensity: 13 MFI
[5]; [32]
  fluorescence intensity: 13.5 MFI
[5]; [25]
  fluorescence intensity: 16 MFI
[5]; [26]
  fluorescence intensity: 35.2 MFI
[6]; [27]
  fluorescence intensity: 16.5 MFI
[6]; [28]
  fluorescence intensity: 17.5 MFI
[6]; [29]
  fluorescence intensity: 17.5 MFI
[6]; [30]
  fluorescence intensity: 17 MFI
[6]; [31]
  fluorescence intensity: 15.5 MFI
[6]; [32]
  fluorescence intensity: 18.8 MFI
[6]; [25]
  fluorescence intensity: 19.2 MFI
[6]; [26]
  fluorescence intensity: 31 MFI
[7]; [27]
  fluorescence intensity: 24.5 MFI
[7]; [28]
  fluorescence intensity: 25.5 MFI
[7]; [29]
  fluorescence intensity: 26 MFI
[7]; [30]
  fluorescence intensity: 25 MFI
[7]; [31]
  fluorescence intensity: 25.5 MFI
[7]; [32]
  fluorescence intensity: 26.5 MFI
[7]; [25]
  fluorescence intensity: 31.5 MFI
[7]; [26]
  fluorescence intensity: 46 MFI
[8]; [27]
  fluorescence intensity: 17 MFI
[8]; [28]
  fluorescence intensity: 17.5 MFI
[8]; [29]
  fluorescence intensity: 17.5 MFI
[8]; [30]
  fluorescence intensity: 18 MFI
[8]; [31]
  fluorescence intensity: 19.5 MFI
[8]; [32]
  fluorescence intensity: 20 MFI
[8]; [25]
  fluorescence intensity: 27.5 MFI
[8]; [26]
  fluorescence intensity: 120 MFI
[9]; [27]
  fluorescence intensity: 17.5 MFI
[9]; [28]
  fluorescence intensity: 16.5 MFI
[9]; [29]
  fluorescence intensity: 16.5 MFI
[9]; [30]
  fluorescence intensity: 18 MFI
[9]; [31]
  fluorescence intensity: 19 MFI
[9]; [32]
  fluorescence intensity: 17 MFI
[9]; [25]
  fluorescence intensity: 18 MFI
[9]; [26]
  fluorescence intensity: 20.5 MFI
[10]; [27]
  fluorescence intensity: 18.2 MFI
[10]; [28]
  fluorescence intensity: 17.2 MFI
[10]; [29]
  fluorescence intensity: 21 MFI
[10]; [30]
  fluorescence intensity: 20 MFI
[10]; [31]
  fluorescence intensity: 20.2 MFI
[10]; [32]
  fluorescence intensity: 20 MFI
[10]; [25]
  fluorescence intensity: 20.5 MFI
[10]; [26]
  fluorescence intensity: 30 MFI
[11]; [27]
  fluorescence intensity: 16 MFI
[11]; [28]
  fluorescence intensity: 15.2 MFI
[11]; [29]
  fluorescence intensity: 15.8 MFI
[11]; [30]
  fluorescence intensity: 15.5 MFI
[11]; [31]
  fluorescence intensity: 15 MFI
[11]; [32]
  fluorescence intensity: 15.5 MFI
[11]; [25]
  fluorescence intensity: 16 MFI
[11]; [26]
  fluorescence intensity: 20 MFI
[12]; [27]
  fluorescence intensity: 12.5 MFI
[12]; [28]
  fluorescence intensity: 11.8 MFI
[12]; [29]
  fluorescence intensity: 12 MFI
[12]; [30]
  fluorescence intensity: 13 MFI
[12]; [31]
  fluorescence intensity: 12.5 MFI
[12]; [32]
  fluorescence intensity: 14 MFI
[12]; [25]
  fluorescence intensity: 16.5 MFI
[12]; [26]
  fluorescence intensity: 51.5 MFI
[13]; [27]
  fluorescence intensity: 13.5 MFI
[13]; [28]
  fluorescence intensity: 14.2 MFI
[13]; [29]
  fluorescence intensity: 13 MFI
[13]; [30]
  fluorescence intensity: 12.5 MFI
[13]; [31]
  fluorescence intensity: 12 MFI
[13]; [32]
  fluorescence intensity: 13.2 MFI
[13]; [25]
  fluorescence intensity: 14.5 MFI
[13]; [26]
  fluorescence intensity: 17 MFI
[14]; [27]
  fluorescence intensity: 16 MFI
[14]; [28]
  fluorescence intensity: 16.8 MFI
[14]; [29]
  fluorescence intensity: 16.5 MFI
[14]; [30]
  fluorescence intensity: 15.8 MFI
[14]; [31]
  fluorescence intensity: 17 MFI
[14]; [32]
  fluorescence intensity: 18 MFI
[14]; [25]
  fluorescence intensity: 19.5 MFI
[14]; [26]
  fluorescence intensity: 38 MFI
[15]; [27]
  fluorescence intensity: 19 MFI
[15]; [28]
  fluorescence intensity: 18 MFI
[15]; [29]
  fluorescence intensity: 18 MFI
[15]; [30]
  fluorescence intensity: 18 MFI
[15]; [31]
  fluorescence intensity: 19 MFI
[15]; [32]
  fluorescence intensity: 18 MFI
[15]; [25]
  fluorescence intensity: 19.5 MFI
[15]; [26]
  fluorescence intensity: 31.5 MFI
[16]; [27]
  fluorescence intensity: 19.8 MFI
[16]; [28]
  fluorescence intensity: 18.8 MFI
[16]; [29]
  fluorescence intensity: 18.8 MFI
[16]; [30]
  fluorescence intensity: 18.2 MFI
[16]; [31]
  fluorescence intensity: 19 MFI
[16]; [32]
  fluorescence intensity: 19 MFI
[16]; [25]
  fluorescence intensity: 20.5 MFI
[16]; [26]
  fluorescence intensity: 23 MFI
[17]; [27]
  fluorescence intensity: 17.5 MFI
[17]; [28]
  fluorescence intensity: 19 MFI
[17]; [29]
  fluorescence intensity: 19 MFI
[17]; [30]
  fluorescence intensity: 19 MFI
[17]; [31]
  fluorescence intensity: 21 MFI
[17]; [32]
  fluorescence intensity: 19 MFI
[17]; [25]
  fluorescence intensity: 18.5 MFI
[17]; [26]
  fluorescence intensity: 23 MFI
[18]; [27]
  fluorescence intensity: 15 MFI
[18]; [28]
  fluorescence intensity: 15 MFI
[18]; [29]
  fluorescence intensity: 15 MFI
[18]; [30]
  fluorescence intensity: 16.5 MFI
[18]; [31]
  fluorescence intensity: 15 MFI
[18]; [32]
  fluorescence intensity: 17 MFI
[18]; [25]
  fluorescence intensity: 17.5 MFI
[18]; [26]
  fluorescence intensity: 31.8 MFI
[19]; [27]
  fluorescence intensity: 24.5 MFI
[19]; [28]
  fluorescence intensity: 23 MFI
[19]; [29]
  fluorescence intensity: 24 MFI
[19]; [30]
  fluorescence intensity: 24 MFI
[19]; [31]
  fluorescence intensity: 25.5 MFI
[19]; [32]
  fluorescence intensity: 25 MFI
[19]; [25]
  fluorescence intensity: 33 MFI
[19]; [26]
  fluorescence intensity: 99.5 MFI
[20]; [27]
  fluorescence intensity: 24.5 MFI
[20]; [28]
  fluorescence intensity: 25 MFI
[20]; [29]
  fluorescence intensity: 26 MFI
[20]; [30]
  fluorescence intensity: 24 MFI
[20]; [31]
  fluorescence intensity: 27 MFI
[20]; [32]
  fluorescence intensity: 25.5 MFI
[20]; [25]
  fluorescence intensity: 28.5 MFI
[20]; [26]
  fluorescence intensity: 36.5 MFI
[21]; [27]
  fluorescence intensity: 18.2 MFI
[21]; [28]
  fluorescence intensity: 18 MFI
[21]; [29]
  fluorescence intensity: 18 MFI
[21]; [30]
  fluorescence intensity: 19 MFI
[21]; [31]
  fluorescence intensity: 19.5 MFI
[21]; [32]
  fluorescence intensity: 19.5 MFI
[21]; [25]
  fluorescence intensity: 20.5 MFI
[21]; [26]
  fluorescence intensity: 30.2 MFI
[22]; [27]
  fluorescence intensity: 17 MFI
[22]; [28]
  fluorescence intensity: 17.5 MFI
[22]; [29]
  fluorescence intensity: 16 MFI
[22]; [30]
  fluorescence intensity: 16.5 MFI
[22]; [31]
  fluorescence intensity: 18 MFI
[22]; [32]
  fluorescence intensity: 19 MFI
[22]; [25]
  fluorescence intensity: 22.2 MFI
[22]; [26]
  fluorescence intensity: 34 MFI
[23]; [27]
  fluorescence intensity: 16 MFI
[23]; [28]
  fluorescence intensity: 15.5 MFI
[23]; [29]
  fluorescence intensity: 16 MFI
[23]; [30]
  fluorescence intensity: 16.5 MFI
[23]; [31]
  fluorescence intensity: 16 MFI
[23]; [32]
  fluorescence intensity: 18 MFI
[23]; [25]
  fluorescence intensity: 18.5 MFI
[23]; [26]
  fluorescence intensity: 38 MFI
[24]; [27]
  fluorescence intensity: 21.2 MFI
[24]; [28]
  fluorescence intensity: 21.5 MFI
